Measured values from PubChem BioAssay AID720711 (National Center for Advancing Translational Sciences (NCATS), 2013).
About 290 (0.081%) of roughly 360,000 compounds were called active. Inconclusive means that the source gave no clear call. Such entries were picked first, then a sample of the others. Calls come from the whole dose curve; as a rule, active = well fitted activation curve with a large enough effect; inconclusive = small, poorly fitted or top-dose-only effect; inactive = no such curve, though single readings can be large or run the other way. Where the call is inconclusive, the potency comes from a doubtful curve fit.

Chains of the proteins cited; added tags and fusions are not shown. Lines headed by an entry give the natural chain unless they say otherwise; changes in a name come on top.
UniProt Q8WZA2: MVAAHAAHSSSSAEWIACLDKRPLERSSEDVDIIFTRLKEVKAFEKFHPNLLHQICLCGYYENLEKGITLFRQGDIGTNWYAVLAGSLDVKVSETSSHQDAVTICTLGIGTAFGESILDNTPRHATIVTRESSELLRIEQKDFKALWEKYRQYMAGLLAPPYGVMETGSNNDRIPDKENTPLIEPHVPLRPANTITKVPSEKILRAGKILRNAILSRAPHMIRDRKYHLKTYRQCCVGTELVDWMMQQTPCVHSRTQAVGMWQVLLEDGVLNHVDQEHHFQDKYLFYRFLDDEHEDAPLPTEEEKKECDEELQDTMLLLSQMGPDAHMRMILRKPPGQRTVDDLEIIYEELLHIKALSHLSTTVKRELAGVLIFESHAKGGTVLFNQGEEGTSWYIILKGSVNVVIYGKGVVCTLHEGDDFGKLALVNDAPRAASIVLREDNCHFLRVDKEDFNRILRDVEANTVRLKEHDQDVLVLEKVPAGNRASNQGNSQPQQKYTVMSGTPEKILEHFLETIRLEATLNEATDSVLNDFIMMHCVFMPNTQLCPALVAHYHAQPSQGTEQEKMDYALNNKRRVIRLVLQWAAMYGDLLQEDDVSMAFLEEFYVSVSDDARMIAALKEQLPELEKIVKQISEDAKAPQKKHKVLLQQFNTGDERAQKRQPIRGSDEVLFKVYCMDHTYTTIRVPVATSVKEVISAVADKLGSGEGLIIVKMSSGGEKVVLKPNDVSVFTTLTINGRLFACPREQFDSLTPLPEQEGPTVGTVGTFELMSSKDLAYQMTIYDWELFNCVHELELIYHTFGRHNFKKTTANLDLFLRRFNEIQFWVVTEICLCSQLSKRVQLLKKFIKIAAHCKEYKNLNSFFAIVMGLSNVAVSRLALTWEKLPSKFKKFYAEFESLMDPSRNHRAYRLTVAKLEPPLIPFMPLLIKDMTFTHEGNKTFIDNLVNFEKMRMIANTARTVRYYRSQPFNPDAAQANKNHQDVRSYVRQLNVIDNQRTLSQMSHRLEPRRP

target: Rap guanine nucleotide exchange factor 4 (Homo sapiens) (UniProt Q8WZA2); experiment: qHTS for Agonist of cAMP-regulated guanine nucleotide exchange factor 4 (EPAC2): primary screen; conditions: biochemical qHTS; Potency: EPAC2 activation unless noted; activation: at 154 µM (top of the series), 100% = 6.5 mM cAMP response unless noted; note: nearly all actives have a fitted effect of over 50% in size
How it was run: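 Guanine nucleotide exchange by EPAC2 is measured as reduced fluorescence of BODIPY-GDP once it is released from 250 nM Rap1B. Plates are read kinetically for 30 min at room temperature; results are scaled to 6.5 mM cAMP.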
Potency is the fitted concentration of half-maximal effect.

| SMILES | activation | Potency |
| --- | --- | --- |
| Cc1ccc(-n2nc3ccc(NC(=O)/C=C/c4ccco4)cc3n2)cc1 | inactive: -0.529% |  |
| CN1c2ccc(Cl)cc2C(=O)NC1C1CC=CCC1 (centres undefined) |  | inconclusive: 112 µM [activator, single point] |
| O=C(O)c1ccccc1C1=Nc2ccc(O)cc2Oc2cc(O)ccc21 |  | inconclusive: 112 µM [activator, single point] |
| CC(C)OC(=O)C(C#N)c1nc2ccccc2nc1N1CCCC1 (centres undefined) |  | inconclusive: 100 µM [activator, partial curve] |
| C#CCCc1cscc1/C=[N+](\[O-])c1ccc(C(=O)OCC)cc1 | inactive: 1.45% |  |
| CN(C)CCNC(C(=O)Nc1cccc(C(F)(F)F)c1)c1ccccc1 (centres undefined) | inactive: -1.9% |  |
| CCCn1nc(C(=O)Nc2ccc(S(=O)(=O)Nc3nccs3)cc2)c2ccccc2c1=O |  | inconclusive: 112 µM [activator, partial curve, poor fit] |
| CC1=C(C(=O)OCc2ccc3c(c2)OCO3)C(c2ccccc2)NC(=O)N1 (centres undefined) |  | active: 100 µM |
| COc1ccc2c3c(cccc13)C(=O)CC2 |  | active: 112 µM |
| CCCNC(=O)c1ccc2c(=O)c(O)c(-c3ccsc3)[nH]c2c1 |  | active: 89.1 µM |
| CC(=O)Cn1c(C(F)(F)F)nc2ccccc21 |  | inconclusive: 126 µM [activator, single point] |
| Clc1ccc(CSc2ncn(-c3ccccc3)n2)cc1 |  | inconclusive: 112 µM [activator, partial curve] |
| COc1ccccc1-c1cccc([C@@H]2C[C@H]3[C@H](CON3C)CN2C)c1 |  | inconclusive: 56.2 µM [activator, single point] |
| Cc1cccc(Nc2nc3ccccc3s2)c1C |  | inconclusive: 50.1 µM [activator, partial curve] |
| COc1cccc(NC(=O)c2ccc3c(c2)N(C)CCS3)c1 |  | inconclusive: 70.8 µM [activator, partial curve, poor fit] |
| COc1ccc(C(C2C(=O)CC(C)(C)CC2=O)C2C(=O)CC(C)(C)CC2=O)cc1COCC(F)(F)F | inactive: -3.67% |  |
| NC(=S)Nc1cccc2cnccc12 |  | inconclusive: 3.16 µM [activator, partial curve] |
| CCc1ccc(CN(C)C(=O)c2cc(COc3cncc(Cl)c3)on2)cc1 | inconclusive: 17.2% [activator] |  |
| CSc1nc(N)nc2c1ncn2CC(=O)NCC(c1ccccc1)c1ccccc1 |  | inconclusive: 50.1 µM [activator, single point] |
| Cn1c(=O)c(N)c2c3c(c(Br)ccc31)C(=O)c1ccccc1-2 |  | inconclusive: 112 µM [activator, single point] |
| CC(C)COC(=O)C(N)C(C(=O)OCC(C)C)c1ccccc1 (centres undefined) |  | inconclusive: 17.8 µM [activator, partial curve] |
| O=C(c1ccc2c3n(nc2c1)-c1ccc(Cl)cc1CO3)N1CCOCC1 | inactive: 4.53% |  |
| Cc1csc(NC(=O)Cc2c(F)cccc2Cl)n1 | inactive: 3.66% |  |
| O=C(Nc1cc(S(=O)(=O)N2CCCCC2)ccc1O)c1ccccc1NS(=O)(=O)c1ccc(F)cc1 |  | inactive |
| COC(=O)Cc1cn(-c2ncc(C(F)(F)F)cc2Cl)c2ccccc12 |  | inconclusive: 126 µM [activator, partial curve, poor fit] |

Copied from the list:
Potency, `Cc1cccc(Nc2nc3ccccc3s2)c1C` is entered as inconclusive: 50.1 µM [activator, partial curve]
Potency, `CC1=C(C(=O)OCc2ccc3c(c2)OCO3)C(c2ccccc2)NC(=O)N1` (centres undefined) is entered as active: 100 µM
Potency, `Cn1c(=O)c(N)c2c3c(c(Br)ccc31)C(=O)c1ccccc1-2` is entered as inconclusive: 112 µM [activator, single point]
Potency, `CC(C)COC(=O)C(N)C(C(=O)OCC(C)C)c1ccccc1` (centres undefined) is entered as inconclusive: 17.8 µM [activator, partial curve]

(next part)

| SMILES | activation | Potency |
| --- | --- | --- |
| Cc1cc(-c2ccco2)c(C#N)c2nc3ccccc3n12 |  | inconclusive: 100 µM [activator, partial curve] |
| COc1ccc(N)cc1C#N |  | inconclusive: 56.2 µM [activator, single point] |
| Clc1ccc(-c2cc3ccccc3nc2N2CCOCC2)cc1 | inactive: 7.48% |  |
| COc1ccc(-c2cnnc(N/N=C/c3ccc(C)o3)n2)cc1 | inactive: 2.01% |  |
| C=CCn1c(N)c(S(=O)(=O)c2cccs2)c2nc3ccccc3nc21 |  | active: 10 µM |
| Cn1cc(C(c2ccccc2OCC(=O)O)c2cn(C)c3ccccc23)c2ccccc21 | inactive: -5.84% |  |
| O=C1CC[C@H](O)CCN1[C@H](CSc1ccccc1)Cc1ccccc1 |  | inconclusive: 56.2 µM [activator, single point] |
| CCc1ccccc1NC(=O)CN(C)C(=O)Cn1cnc2ccc(Cl)cc2c1=O |  | inconclusive: 28.2 µM [activator, partial curve] |
| O=C(C1CCN(S(=O)(=O)N2CCOCC2)CC1)N1CCN(c2ccccc2)CC1 |  | inconclusive: 126 µM [activator, partial curve, poor fit] |
| C/C(=C\C=C(C#N)C#N)c1cc(C#N)c(N)o1 |  | inconclusive: 126 µM [activator, single point] |
| CC(=O)c1cc(CN2CCC(N3CCC(C(=O)NC(C)C)CC3)CC2)cs1 | inactive: -6.5% |  |
| O=C(N/N=C/c1c(O)ccc2ccccc12)c1[nH]ncc1Br |  | inconclusive: 89.1 µM [activator, partial curve] |
| Cn1nc(-c2ccccn2)nc2c(=O)n(C)c(=O)nc1-2 |  | inconclusive: 31.6 µM [activator, full curve] |
| COC(=O)C1=COC(C)C2CN3CCc4c([nH]c5ccccc45)C3CC12 (centres undefined) |  | inconclusive: 35.5 µM [activator, partial curve] |
| O=C(O)CCCN1C(=O)/C(=C/c2cn(-c3ccccc3)nc2-c2cccs2)SC1=S |  | inconclusive: 20 µM [activator, full curve] |
| COc1ccc(OC)c(C(=O)CSc2nnc(C3CC3)n2C2CC2)c1 | inactive: -2.05% |  |
| CCOC(=O)c1cc2n(c1N)-c1ccccc1C2=O |  | active: 89.1 µM |
| Cc1ccccc1N1C(=O)c2cccc3c(N(C)CCO)ccc(c23)C1=O |  | inconclusive: 100 µM [activator, partial curve] |
| COc1cc(NC(=O)Nc2ccccc2OC)c(OC)cc1NC(=O)CN1CCCCC1 |  | inconclusive: 126 µM [activator, single point] |
| OCC1(CC2CCCCO2)CCN(C/C=C/c2ccccc2)CC1 (centres undefined) |  | inconclusive: 35.5 µM [activator, single point] |
| Cc1[nH]n(-c2ccccc2)c(=O)c1Sc1ccc(Cl)cc1 | inactive: -5.28% |  |
| CC1CCN(c2ccc3c(c2)S(=O)(=O)c2cccc(C(=O)NC[C@@H]4CCCO4)c2C3=O)CC1 |  | active: 112 µM |
| CN(C)CCNc1oc(-c2ccccc2F)nc1C#N |  | inconclusive: 126 µM [activator, single point] |
| Cc1cc2nc(SCCOC(=O)Nc3ccc(Cl)cc3)nc(C)c2cc1C | inconclusive: 98.8% [activator] [at 15.6 µM, 100% = 6.5 mM cAMP response] |  |
| O=S(=O)(c1cccc(Cl)c1)N1CCN(S(=O)(=O)c2ccc3c(c2)OCCO3)CC1 | inactive: 5.96% |  |

| SMILES | activation | Potency |
| --- | --- | --- |
| COc1ccc(OC)c2c1C(=O)c1ccccc1C2=O |  | active: 89.1 µM |
| Nc1nc(Sc2ccc([N+](=O)[O-])c3nonc23)c2[nH]cnc2n1 | inactive: -2.57% |  |
| CCN(CC)c1ccc(C=Nc2ccc(N(C)C)cc2)c(O)c1 |  | inconclusive: 126 µM [activator, partial curve] |
| CCCc1cc(=O)n2[nH]c(-c3ccc(C)cc3)cc2n1 | inactive: -3.54% |  |
| Cc1ccc(-c2cc(-c3ccccc3Cl)[nH]n2)c(O)c1 |  | inconclusive: 100 µM [activator, partial curve] |
| O=C(/C=C/c1ccccc1)CC(O)(c1ccccc1)C(F)(F)C(F)F (centres undefined) |  | inconclusive: 112 µM [activator, partial curve] |
| CC1(C(=O)NS(=O)(=O)c2ccc(F)cc2F)CCN1C(=O)C1(c2ccc(Cl)cc2)CCC1 (centres undefined) | inactive: -0.965% |  |
| COc1ccc(C2CC(O)(c3ccccc3)Oc3cc(OC)c(OC)c(OC)c32)cc1 (centres undefined) | inactive: 5.49% |  |
| O=C(c1ccc(S(=O)(=O)N2CCc3ccccc3C2)cc1)N1CCCCC1 | inconclusive: 39.2% [activator] |  |
| CCOc1cc(C2C(C#N)=C(N)OC(C)=C2C(C)=O)cc(Br)c1O (centres undefined) |  | inconclusive: 112 µM [activator, single point] |
| CCSc1nnc(NC(=O)C(C(F)(F)F)C(F)(F)F)s1 |  | inconclusive: 112 µM [activator, single point] |
| Oc1oc(-c2ccccc2)nc1C=Nc1cccc2ccccc12 |  | inconclusive: 89.1 µM [activator, partial curve] |
| CCOc1cc(NC(=S)NC)c(OCC)cc1NC(=O)c1ccc(OC)cc1 |  | inconclusive: 126 µM [activator, single point] |
| Nn1cnnc1N/N=C/c1ccc(F)cc1 | inactive: -8.24% |  |
| C#CCNC(=O)C[C@@H]1C[C@@]2(C(=O)OC)CC(C)(C)CC=C2N(CCCCCCCC)C1=O | inactive: -11.3% |  |
| FC(F)c1nc2nc(Cl)c(Cl)nc2[nH]1 | inactive: 2.54% |  |
| CCN1C(=O)/C(=C/C=C2/SCCN2C)SC1=S |  | active: 35.5 µM |
| O=C(c1ccc(Br)cc1)N(Cc1nc2ccccc2c(=O)[nH]1)C1CCCC1 |  | inconclusive: 112 µM [activator, partial curve] |
| O=c1oc2ccc(Cl)cc2cc1-c1nnc(Nc2cccc(C(F)(F)F)c2)s1 |  | inconclusive: 22.4 µM [activator, single point] |
| Cc1ccc(C2=C(O)C(=O)C(c3ccc(C)cc3)=C(O)C2=O)cc1 | inactive: -16.1% |  |
| CN(C)c1ccc(/C=C/C(=O)c2ccc3c(c2)OCO3)cc1 |  | active: 100 µM |
| CC1=CC(C)(C)NC(=S)N1c1cccc2ccccc12 |  | inconclusive: 126 µM [activator, single point] |
| CN(C)CCCN(C(=O)c1ccc([N+](=O)[O-])s1)c1nc2cc3c(cc2s1)OCCO3 |  | inconclusive: 112 µM [activator, single point] |
| COC1(OC)N=C(N)C2(C#N)C(c3cccc(Oc4ccccc4)c3)C12C#N (centres undefined) |  | inconclusive: 126 µM [activator, single point] |
